{"sequences": {"note": "Amino acid sequences for entries named in this document (tags omitted). A change or cut given only in a name is not applied to a line headed by its entry.", "UniProt Q8WWC4": "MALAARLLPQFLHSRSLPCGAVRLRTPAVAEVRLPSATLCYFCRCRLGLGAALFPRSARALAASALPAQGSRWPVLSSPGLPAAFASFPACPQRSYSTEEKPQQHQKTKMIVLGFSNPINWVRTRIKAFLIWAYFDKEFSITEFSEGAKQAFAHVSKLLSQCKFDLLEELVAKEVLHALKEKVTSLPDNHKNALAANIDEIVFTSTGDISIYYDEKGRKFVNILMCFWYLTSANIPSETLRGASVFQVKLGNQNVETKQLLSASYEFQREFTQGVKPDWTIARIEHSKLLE", "UniProt Q9Y2G2": "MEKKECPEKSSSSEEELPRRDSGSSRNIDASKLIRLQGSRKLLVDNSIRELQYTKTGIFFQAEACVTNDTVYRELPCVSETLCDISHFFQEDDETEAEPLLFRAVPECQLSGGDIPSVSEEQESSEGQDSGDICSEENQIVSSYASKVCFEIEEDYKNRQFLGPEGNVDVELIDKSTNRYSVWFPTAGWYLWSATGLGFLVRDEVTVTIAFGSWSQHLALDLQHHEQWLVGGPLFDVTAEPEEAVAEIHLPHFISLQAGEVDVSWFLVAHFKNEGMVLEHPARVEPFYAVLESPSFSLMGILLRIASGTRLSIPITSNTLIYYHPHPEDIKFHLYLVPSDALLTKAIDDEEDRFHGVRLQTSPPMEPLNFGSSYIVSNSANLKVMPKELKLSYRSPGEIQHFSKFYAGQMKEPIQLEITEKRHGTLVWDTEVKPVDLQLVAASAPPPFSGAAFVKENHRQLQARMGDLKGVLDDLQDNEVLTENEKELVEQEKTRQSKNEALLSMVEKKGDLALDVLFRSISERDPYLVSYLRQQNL", "UniProt Q6ZRQ5": "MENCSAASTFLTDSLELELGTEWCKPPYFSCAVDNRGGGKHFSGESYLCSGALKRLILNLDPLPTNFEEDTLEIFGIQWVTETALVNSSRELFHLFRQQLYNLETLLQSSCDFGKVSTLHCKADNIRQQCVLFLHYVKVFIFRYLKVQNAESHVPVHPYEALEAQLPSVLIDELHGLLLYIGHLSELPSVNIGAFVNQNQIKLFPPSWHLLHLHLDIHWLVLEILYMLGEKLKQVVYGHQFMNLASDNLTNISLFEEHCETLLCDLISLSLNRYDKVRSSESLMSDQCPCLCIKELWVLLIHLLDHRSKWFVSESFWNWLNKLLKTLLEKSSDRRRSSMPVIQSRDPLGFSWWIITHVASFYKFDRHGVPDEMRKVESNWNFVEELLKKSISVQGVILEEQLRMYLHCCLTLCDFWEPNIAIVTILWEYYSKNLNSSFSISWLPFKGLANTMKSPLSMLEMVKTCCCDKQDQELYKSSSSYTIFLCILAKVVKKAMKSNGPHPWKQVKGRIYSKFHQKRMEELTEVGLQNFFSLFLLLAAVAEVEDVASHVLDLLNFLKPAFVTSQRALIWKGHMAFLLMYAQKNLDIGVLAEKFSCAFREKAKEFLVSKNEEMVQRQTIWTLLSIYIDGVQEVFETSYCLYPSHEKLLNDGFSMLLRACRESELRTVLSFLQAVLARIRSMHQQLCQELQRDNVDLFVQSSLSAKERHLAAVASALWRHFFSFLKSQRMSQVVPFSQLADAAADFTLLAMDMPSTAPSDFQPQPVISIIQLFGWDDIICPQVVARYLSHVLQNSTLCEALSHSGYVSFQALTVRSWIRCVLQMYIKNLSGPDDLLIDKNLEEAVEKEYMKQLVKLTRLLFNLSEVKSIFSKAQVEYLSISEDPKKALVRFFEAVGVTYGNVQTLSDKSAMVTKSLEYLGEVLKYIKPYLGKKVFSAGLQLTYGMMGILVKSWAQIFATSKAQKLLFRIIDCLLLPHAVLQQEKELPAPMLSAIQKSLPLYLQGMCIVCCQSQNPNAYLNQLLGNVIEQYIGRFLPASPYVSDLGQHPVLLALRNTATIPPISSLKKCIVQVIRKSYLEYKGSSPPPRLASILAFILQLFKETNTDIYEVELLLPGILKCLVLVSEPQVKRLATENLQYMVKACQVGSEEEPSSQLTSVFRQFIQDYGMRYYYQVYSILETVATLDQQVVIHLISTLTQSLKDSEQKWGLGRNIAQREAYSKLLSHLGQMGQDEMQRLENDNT", "UniProt O43852": "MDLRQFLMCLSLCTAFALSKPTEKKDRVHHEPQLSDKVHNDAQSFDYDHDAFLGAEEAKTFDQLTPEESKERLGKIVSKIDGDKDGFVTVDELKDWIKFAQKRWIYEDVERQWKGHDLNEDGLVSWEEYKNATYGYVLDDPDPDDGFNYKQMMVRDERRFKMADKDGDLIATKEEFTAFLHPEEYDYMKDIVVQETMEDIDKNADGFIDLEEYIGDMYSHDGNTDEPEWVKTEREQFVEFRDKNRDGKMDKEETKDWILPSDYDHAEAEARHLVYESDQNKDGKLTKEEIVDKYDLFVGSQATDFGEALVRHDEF", "UniProt Q8N357": "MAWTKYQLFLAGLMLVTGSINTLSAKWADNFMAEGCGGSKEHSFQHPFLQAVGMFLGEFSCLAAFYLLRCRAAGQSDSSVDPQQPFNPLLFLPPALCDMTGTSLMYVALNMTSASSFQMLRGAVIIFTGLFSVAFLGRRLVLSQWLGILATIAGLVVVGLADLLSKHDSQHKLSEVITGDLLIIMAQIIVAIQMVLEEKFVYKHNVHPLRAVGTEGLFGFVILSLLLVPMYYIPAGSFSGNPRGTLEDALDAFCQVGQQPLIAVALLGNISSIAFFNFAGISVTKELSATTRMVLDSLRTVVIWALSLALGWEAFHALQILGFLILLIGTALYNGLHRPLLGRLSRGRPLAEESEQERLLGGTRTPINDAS", "UniProt Q9NRP2": "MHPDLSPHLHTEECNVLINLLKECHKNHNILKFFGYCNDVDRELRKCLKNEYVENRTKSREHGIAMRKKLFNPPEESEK", "UniProt Q5SWX8": "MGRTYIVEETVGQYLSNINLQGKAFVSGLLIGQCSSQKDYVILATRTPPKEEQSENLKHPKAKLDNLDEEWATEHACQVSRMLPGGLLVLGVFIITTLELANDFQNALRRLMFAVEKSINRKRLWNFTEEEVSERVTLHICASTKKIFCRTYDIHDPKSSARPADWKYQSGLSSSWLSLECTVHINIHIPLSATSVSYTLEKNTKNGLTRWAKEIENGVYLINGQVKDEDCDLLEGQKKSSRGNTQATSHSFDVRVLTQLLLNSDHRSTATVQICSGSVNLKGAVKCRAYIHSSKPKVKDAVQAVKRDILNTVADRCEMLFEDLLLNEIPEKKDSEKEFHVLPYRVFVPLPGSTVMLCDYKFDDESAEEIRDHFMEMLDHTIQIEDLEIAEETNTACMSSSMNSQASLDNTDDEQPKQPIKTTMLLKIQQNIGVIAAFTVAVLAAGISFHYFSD", "UniProt Q9H9C1": "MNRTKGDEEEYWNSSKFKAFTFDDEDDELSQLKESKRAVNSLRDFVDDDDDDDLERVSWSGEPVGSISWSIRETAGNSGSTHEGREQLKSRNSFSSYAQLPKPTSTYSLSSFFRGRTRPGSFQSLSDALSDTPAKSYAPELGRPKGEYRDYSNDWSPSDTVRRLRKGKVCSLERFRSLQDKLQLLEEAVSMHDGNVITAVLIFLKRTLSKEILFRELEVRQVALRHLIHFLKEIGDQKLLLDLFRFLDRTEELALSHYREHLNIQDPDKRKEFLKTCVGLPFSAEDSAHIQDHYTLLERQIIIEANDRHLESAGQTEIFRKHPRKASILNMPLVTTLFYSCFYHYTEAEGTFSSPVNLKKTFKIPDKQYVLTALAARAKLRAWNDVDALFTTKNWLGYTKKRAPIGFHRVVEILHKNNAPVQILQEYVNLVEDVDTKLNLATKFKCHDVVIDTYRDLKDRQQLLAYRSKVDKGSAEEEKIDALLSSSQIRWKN", "UniProt Q9BXV9": "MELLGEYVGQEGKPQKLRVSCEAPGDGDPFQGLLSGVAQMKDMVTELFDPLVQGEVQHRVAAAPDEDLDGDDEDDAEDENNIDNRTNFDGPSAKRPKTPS", "UniProt P17655": "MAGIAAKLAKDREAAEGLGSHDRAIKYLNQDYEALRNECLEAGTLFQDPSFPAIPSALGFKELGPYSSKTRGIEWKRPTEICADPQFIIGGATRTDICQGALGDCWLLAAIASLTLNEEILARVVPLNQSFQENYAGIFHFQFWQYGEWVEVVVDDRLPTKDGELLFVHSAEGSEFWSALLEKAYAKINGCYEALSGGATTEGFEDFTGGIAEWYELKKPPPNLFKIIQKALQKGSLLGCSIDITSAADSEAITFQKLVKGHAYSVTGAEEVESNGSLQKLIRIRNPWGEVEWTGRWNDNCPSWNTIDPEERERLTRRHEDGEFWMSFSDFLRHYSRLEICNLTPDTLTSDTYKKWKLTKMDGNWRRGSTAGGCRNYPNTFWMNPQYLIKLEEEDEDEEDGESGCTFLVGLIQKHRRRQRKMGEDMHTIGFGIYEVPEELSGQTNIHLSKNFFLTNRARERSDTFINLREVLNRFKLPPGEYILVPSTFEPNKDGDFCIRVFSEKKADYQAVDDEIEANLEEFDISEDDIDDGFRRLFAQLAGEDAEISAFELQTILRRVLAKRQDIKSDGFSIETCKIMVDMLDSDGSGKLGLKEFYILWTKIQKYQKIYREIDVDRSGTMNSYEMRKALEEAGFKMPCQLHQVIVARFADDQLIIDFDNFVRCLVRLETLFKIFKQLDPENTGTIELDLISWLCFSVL", "UniProt Q8N0T1": "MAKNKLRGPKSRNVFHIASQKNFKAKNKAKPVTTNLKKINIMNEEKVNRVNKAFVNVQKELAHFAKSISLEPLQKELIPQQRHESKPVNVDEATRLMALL", "UniProt Q96A57": "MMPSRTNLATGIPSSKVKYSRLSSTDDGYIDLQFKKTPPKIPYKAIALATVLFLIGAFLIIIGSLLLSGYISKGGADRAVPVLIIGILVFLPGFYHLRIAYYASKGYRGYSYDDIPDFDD", "UniProt Q8ND04": "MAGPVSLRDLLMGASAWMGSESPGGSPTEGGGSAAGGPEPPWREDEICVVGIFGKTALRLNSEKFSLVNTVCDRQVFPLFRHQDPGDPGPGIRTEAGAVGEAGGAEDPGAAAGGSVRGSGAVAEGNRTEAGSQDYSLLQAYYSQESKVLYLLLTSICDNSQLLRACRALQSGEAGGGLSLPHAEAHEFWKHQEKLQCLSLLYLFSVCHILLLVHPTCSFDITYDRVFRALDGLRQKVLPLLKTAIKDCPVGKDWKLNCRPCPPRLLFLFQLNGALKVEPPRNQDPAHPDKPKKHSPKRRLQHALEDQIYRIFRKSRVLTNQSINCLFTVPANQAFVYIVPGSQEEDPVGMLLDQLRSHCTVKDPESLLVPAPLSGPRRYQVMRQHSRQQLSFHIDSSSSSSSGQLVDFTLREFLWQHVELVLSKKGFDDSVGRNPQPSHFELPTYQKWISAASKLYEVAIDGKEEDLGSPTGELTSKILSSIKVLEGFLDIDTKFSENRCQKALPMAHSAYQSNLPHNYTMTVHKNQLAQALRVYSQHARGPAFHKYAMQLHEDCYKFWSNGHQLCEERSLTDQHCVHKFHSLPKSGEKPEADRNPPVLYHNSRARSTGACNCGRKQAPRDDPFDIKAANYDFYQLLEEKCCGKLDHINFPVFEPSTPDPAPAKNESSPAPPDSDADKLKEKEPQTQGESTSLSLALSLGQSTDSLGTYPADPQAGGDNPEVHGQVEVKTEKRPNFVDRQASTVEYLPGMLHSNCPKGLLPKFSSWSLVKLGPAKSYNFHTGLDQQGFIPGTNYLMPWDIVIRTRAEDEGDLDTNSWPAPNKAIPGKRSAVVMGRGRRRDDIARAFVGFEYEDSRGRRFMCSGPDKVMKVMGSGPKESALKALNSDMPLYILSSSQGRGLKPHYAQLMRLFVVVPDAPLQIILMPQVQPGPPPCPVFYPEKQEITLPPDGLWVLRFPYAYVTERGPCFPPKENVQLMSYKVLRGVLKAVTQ", "UniProt Q0PNE2": "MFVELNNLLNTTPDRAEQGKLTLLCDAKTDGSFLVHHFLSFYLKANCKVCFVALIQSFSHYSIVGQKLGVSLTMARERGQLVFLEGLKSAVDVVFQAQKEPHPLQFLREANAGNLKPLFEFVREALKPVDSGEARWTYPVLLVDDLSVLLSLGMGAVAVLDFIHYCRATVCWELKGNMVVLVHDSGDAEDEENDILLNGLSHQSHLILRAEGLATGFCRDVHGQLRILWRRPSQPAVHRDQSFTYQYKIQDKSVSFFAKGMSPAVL", "UniProt Q8TE02": "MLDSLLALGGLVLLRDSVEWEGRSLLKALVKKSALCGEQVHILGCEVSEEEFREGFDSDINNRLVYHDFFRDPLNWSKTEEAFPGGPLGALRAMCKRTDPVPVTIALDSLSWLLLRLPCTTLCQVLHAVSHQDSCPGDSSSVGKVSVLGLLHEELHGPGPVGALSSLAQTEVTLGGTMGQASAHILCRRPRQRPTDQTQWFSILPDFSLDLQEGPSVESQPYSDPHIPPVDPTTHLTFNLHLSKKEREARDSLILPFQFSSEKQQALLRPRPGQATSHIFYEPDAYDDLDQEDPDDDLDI"}, "source": "the supplement of paper PMC7666118", "note": "This is one part of the list."}
{"compound": "COc1ccc(Cn2ccc3ccc(C(=O)NO)cc32)cc1", "experiment": "dose-dependent thermal stabilisation call (2D-TPP, DLPTP, 10% FDR) (binary (1 = stabilised)); higher = stabilised by the compound", "details": "system: HL-60 intact cells; concentration range 0.04-10 µM"}
{"target": "C1ORF58 (UniProt Q5VW32)", "dose-dependent thermal stabilisation call": "inactive: 0"}
{"target": "C2ORF47 (UniProt Q8WWC4)", "dose-dependent thermal stabilisation call": "inactive: 0"}
{"target": "CARD8 (UniProt Q9Y2G2)", "dose-dependent thermal stabilisation call": "inactive: 0"}
{"target": "C4ORF43 (UniProt Q96EY4)", "dose-dependent thermal stabilisation call": "inactive: 0"}
{"target": "C6ORF167 (UniProt Q6ZRQ5)", "dose-dependent thermal stabilisation call": "inactive: 0"}
{"target": "CALU (UniProt O43852)", "dose-dependent thermal stabilisation call": "inactive: 0"}
{"target": "CASP10 (UniProt Q92851)", "dose-dependent thermal stabilisation call": "inactive: 0"}
{"target": "C2ORF18 (UniProt Q8N357)", "dose-dependent thermal stabilisation call": "inactive: 0"}
{"target": "C3ORF19 (UniProt Q6PII3)", "dose-dependent thermal stabilisation call": "inactive: 0"}
{"target": "C16ORF61 (UniProt Q9NRP2)", "dose-dependent thermal stabilisation call": "inactive: 0"}
{"target": "C1ORF27 (UniProt Q5SWX8)", "dose-dependent thermal stabilisation call": "inactive: 0"}
{"target": "C14ORF133 (UniProt Q9H9C1)", "dose-dependent thermal stabilisation call": "inactive: 0"}
{"target": "C14ORF142 (UniProt Q9BXV9)", "dose-dependent thermal stabilisation call": "inactive: 0"}
{"target": "CAPN2 (UniProt P17655)", "dose-dependent thermal stabilisation call": "inactive: 0"}
{"target": "C8ORF59 (UniProt Q8N0T1)", "dose-dependent thermal stabilisation call": "inactive: 0"}
{"target": "C19ORF66 (UniProt Q9NUL5)", "dose-dependent thermal stabilisation call": "inactive: 0"}
{"target": "C20ORF30 (UniProt Q96A57)", "dose-dependent thermal stabilisation call": "inactive: 0"}
{"target": "C4B (UniProt P0C0L5)", "dose-dependent thermal stabilisation call": "inactive: 0"}
{"target": "C17ORF71 (UniProt Q8ND04)", "dose-dependent thermal stabilisation call": "inactive: 0"}
{"target": "C3ORF75 (UniProt Q0PNE2)", "dose-dependent thermal stabilisation call": "inactive: 0"}
{"target": "C7ORF30 (UniProt Q96EH3)", "dose-dependent thermal stabilisation call": "inactive: 0"}
{"target": "C20ORF74 (UniProt Q2PPJ7)", "dose-dependent thermal stabilisation call": "inactive: 0"}
{"target": "C16ORF62 (UniProt Q7Z3J2)", "dose-dependent thermal stabilisation call": "inactive: 0"}
{"target": "C17ORF81 (UniProt Q8TE02)", "dose-dependent thermal stabilisation call": "inactive: 0"}
{"target": "C19ORF2 (UniProt O94763)", "dose-dependent thermal stabilisation call": "inactive: 0"}
